This is one part of the list. This is a noisy data set.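 Many melting curves are irregular; where none melted, Tm was taken as 64 °C.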

Sequences of proteins named here, by UniProt entry; tags and fusion partners are left off. A change or cut given only in a name is not applied to a line headed by its entry.
UniProt Q58FF8, whole entry: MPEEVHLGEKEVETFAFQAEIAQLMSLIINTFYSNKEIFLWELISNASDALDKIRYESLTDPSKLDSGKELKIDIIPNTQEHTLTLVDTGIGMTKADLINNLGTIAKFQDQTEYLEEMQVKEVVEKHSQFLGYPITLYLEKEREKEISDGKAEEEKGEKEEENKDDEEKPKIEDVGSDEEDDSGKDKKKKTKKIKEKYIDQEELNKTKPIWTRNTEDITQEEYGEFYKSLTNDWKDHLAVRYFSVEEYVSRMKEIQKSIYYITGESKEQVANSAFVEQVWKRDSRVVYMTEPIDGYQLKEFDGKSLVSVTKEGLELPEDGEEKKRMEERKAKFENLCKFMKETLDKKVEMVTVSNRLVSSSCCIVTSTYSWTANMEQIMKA
UniProt Q641Q2, whole entry: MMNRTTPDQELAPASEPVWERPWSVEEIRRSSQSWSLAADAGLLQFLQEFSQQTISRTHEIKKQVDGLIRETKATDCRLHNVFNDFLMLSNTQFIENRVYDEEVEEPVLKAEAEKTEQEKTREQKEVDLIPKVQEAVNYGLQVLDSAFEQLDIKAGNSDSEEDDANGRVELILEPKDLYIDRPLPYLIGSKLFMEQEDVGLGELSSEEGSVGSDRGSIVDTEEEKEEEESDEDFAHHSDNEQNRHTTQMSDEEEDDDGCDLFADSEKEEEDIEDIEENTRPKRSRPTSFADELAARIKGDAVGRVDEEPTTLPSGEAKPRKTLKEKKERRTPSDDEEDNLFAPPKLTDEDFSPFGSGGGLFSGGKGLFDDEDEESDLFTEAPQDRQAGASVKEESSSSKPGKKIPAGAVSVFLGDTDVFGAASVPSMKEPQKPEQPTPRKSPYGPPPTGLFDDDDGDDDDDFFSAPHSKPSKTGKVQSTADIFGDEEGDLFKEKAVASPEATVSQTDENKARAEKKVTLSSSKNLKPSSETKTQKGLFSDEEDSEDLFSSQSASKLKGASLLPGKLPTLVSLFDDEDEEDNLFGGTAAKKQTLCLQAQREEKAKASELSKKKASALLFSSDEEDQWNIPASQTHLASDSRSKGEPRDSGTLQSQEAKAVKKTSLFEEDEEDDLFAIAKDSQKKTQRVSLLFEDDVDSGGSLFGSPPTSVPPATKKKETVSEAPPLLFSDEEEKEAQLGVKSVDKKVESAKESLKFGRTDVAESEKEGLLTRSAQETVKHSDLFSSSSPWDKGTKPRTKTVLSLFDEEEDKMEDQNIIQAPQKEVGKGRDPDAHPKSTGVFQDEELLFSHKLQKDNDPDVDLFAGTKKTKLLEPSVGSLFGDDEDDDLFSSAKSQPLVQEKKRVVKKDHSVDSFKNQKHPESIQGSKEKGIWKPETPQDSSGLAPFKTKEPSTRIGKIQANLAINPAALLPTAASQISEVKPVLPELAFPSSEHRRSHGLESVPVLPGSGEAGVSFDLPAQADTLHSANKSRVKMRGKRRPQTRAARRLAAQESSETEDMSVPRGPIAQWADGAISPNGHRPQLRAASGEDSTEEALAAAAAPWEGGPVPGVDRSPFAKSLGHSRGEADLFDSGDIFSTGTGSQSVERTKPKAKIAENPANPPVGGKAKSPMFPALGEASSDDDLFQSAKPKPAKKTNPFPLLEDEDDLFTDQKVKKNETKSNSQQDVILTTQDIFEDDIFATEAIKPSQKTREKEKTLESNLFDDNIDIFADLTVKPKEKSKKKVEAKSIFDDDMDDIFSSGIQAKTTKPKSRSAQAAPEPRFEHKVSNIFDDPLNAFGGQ
UniProt Q6GMV3: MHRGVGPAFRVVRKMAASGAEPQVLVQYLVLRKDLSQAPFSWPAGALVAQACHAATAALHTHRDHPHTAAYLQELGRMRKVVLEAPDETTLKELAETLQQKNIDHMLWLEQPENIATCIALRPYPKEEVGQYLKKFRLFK
UniProt Q5J8M3, whole entry: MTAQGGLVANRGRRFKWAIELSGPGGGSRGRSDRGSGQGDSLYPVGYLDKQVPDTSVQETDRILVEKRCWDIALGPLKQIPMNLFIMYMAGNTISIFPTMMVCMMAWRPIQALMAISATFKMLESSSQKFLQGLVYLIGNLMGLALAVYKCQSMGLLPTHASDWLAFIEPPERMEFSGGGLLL
UniProt Q66K14, whole entry: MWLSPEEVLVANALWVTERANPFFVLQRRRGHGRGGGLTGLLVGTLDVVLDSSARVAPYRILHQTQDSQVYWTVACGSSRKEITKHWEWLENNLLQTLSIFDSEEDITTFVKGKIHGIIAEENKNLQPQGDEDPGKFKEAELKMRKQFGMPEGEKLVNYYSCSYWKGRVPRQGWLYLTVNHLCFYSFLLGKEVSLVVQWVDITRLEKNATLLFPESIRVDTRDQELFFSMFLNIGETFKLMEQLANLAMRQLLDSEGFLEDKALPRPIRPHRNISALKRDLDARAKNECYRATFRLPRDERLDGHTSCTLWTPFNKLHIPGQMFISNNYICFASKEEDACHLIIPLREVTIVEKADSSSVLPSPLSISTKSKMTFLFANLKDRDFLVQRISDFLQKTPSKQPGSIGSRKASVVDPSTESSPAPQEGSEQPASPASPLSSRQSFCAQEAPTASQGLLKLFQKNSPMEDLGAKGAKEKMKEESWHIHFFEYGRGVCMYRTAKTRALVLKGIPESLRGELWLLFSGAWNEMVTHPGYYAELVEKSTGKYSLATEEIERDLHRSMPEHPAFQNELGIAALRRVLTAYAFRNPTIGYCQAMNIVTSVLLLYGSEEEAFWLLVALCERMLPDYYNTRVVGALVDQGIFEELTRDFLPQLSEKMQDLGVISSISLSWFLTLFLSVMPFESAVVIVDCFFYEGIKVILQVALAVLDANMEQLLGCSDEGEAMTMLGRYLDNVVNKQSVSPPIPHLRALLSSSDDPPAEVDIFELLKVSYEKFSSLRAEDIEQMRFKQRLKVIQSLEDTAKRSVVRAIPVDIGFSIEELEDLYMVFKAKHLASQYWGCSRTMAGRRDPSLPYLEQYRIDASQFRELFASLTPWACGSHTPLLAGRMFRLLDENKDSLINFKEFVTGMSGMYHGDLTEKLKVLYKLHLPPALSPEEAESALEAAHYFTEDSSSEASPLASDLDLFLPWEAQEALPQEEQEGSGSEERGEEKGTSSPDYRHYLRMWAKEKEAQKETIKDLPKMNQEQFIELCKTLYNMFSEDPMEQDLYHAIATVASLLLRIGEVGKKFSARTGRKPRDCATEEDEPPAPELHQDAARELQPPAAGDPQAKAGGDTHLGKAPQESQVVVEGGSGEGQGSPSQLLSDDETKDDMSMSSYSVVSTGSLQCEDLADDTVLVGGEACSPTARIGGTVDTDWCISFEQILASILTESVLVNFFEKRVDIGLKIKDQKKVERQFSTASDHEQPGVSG
UniProt Q5JRX3: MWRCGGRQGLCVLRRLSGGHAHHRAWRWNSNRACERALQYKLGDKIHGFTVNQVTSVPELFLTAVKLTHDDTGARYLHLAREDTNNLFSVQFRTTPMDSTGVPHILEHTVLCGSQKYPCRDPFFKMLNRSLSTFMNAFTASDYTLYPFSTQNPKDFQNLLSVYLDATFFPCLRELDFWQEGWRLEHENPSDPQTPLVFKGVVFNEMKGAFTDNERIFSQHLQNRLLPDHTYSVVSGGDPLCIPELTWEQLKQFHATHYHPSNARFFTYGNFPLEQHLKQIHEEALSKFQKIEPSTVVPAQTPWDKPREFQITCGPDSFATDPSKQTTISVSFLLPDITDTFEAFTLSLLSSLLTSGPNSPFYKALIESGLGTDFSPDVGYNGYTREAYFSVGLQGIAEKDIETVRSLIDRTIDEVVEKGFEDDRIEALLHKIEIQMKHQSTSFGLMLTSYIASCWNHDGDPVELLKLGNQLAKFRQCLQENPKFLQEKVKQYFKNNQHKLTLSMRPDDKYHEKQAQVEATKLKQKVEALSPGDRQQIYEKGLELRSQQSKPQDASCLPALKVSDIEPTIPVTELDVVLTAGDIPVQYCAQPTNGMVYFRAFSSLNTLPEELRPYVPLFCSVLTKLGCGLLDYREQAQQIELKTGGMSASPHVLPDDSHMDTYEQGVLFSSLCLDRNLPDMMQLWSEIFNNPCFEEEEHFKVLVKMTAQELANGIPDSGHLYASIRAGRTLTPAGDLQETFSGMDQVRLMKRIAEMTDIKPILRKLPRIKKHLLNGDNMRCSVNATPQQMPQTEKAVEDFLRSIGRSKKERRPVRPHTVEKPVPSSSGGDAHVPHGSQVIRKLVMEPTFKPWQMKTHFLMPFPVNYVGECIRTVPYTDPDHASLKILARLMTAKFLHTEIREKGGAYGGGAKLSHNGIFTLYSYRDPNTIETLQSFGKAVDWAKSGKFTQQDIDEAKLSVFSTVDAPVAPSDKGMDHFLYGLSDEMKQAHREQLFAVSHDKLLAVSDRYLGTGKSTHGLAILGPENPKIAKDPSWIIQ
UniProt Q66GS9: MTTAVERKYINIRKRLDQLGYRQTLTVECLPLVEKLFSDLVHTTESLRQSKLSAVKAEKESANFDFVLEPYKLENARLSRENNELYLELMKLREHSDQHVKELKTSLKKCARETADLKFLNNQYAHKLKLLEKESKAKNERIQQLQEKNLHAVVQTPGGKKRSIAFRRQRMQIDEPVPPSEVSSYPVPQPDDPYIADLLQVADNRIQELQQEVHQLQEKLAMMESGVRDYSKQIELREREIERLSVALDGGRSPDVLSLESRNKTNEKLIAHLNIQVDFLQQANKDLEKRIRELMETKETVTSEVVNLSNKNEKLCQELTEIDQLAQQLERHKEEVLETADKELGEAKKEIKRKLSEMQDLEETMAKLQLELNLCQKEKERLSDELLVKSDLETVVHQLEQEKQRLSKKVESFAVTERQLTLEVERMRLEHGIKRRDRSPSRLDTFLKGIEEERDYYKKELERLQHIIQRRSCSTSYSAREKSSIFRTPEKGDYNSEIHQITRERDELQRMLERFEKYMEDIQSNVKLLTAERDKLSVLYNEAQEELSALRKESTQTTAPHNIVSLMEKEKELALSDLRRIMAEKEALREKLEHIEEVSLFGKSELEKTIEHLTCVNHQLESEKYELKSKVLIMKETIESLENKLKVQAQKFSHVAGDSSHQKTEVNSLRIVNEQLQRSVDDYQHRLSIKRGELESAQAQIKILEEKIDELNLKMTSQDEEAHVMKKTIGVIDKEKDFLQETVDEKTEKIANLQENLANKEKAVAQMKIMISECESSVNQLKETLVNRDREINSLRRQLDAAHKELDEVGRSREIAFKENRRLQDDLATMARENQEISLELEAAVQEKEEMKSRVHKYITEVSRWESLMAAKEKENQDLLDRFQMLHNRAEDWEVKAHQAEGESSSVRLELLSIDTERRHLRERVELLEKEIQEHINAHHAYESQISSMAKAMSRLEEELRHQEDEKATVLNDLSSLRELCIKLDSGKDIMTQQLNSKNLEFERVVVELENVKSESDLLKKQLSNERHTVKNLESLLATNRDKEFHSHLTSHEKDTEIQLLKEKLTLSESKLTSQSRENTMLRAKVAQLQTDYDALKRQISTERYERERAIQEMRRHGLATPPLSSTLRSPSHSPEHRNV
UniProt Q6P582, whole entry: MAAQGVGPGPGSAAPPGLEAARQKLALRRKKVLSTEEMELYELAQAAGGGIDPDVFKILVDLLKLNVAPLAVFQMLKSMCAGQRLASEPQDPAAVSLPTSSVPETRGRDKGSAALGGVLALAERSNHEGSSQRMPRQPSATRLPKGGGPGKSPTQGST

Compound in one experiment: CCc1cnccc1C(=O)Nc1cc2c(cc1F)NC(=O)CC2
Description: melting temperature shift (DMSO Tm minus MBE1-treated Tm) in cellular thermal proteome profiling; higher = less thermal stabilization by MBE1 (negative = stabilized by MBE1). The note with it: A375; MBE1 concentration: 100 nM.
Regarding MRPL14 (UniProt Q6P1L8), the melting temperature shift amounted to 0.806 °C.
On to UniProt Q5HYJ3, for which the melting temperature shift is -0.0794 °C.
Same read-out and setting: for RBM26 (UniProt Q5T8P6) the value was -0.295 °C; for UniProt Q5VWG9, -0.254 °C.
In the case of UniProt Q58FF8, the melting temperature shift is -0.0672 °C.
For UniProt Q58EX7, the melting temperature shift is -0.939 °C.
Turning to KIAA0930 (UniProt Q6ICG6), the melting temperature shift is -1.11 °C.
For EARS2 (UniProt Q5JPH6), the melting temperature shift is -0.461 °C.
With UniProt Q68DK7, the melting temperature shift came to 0.167 °C.
With FAM21A (UniProt Q641Q2), the melting temperature shift is 0.452 °C.
For UniProt Q6GMV3, the melting temperature shift was -2.7 °C.
With GLT8D1 (UniProt Q68CQ7), the melting temperature shift turned out to be 0.318 °C.
Same read-out and setting: with EMC4 (UniProt Q5J8M3) the figure was 0.0738 °C; with UniProt Q68CZ1, -0.269 °C; with SNAP47 (UniProt Q5SQN1), -0.311 °C.
As for SMYD5 (UniProt Q6GMV2), the melting temperature shift is -1.07 °C.
On to RC3H1 (UniProt Q5TC82), for which the melting temperature shift was -0.402 °C.
On to YIF1B (UniProt Q5BJH7), for which the melting temperature shift was -1.17 °C.
In the case of DOCK11 (UniProt Q5JSL3), the melting temperature shift came to 0.775 °C.
Take TBC1D9B (UniProt Q66K14): the melting temperature shift is 0.385 °C.
Consider MIA3 (UniProt Q5JRA6), for which the melting temperature shift was 0.153 °C.
For PMF1 (UniProt Q6P1K2), the melting temperature shift stood at 0.537 °C.
On to FAM160B1 (UniProt Q5W0V3), for which the melting temperature shift was -0.387 °C.
For PDSS1 (UniProt Q5T2R2), the melting temperature shift was 0.423 °C.
Consider SH3D19 (UniProt Q5HYK7), for which the melting temperature shift was -0.402 °C.
On the same count and under the same terms, with PITRM1 (UniProt Q5JRX3) the figure was 1.2 °C; with FAM117B (UniProt Q6P1L5), 1.61 °C; with INTS3 (UniProt Q68E01), -0.639 °C.
On the same count and under the same terms, for PIGG (UniProt Q5H8A4) the value was 0.134 °C; for UniProt Q5R372, 0.055 °C.
With UniProt Q68DA7, the melting temperature shift was -1.15 °C.
Still for that read-out and setting: with RNF123 (UniProt Q5XPI4) the figure was 0.128 °C; with DUS1L (UniProt Q6P1R4), -0.391 °C; with UniProt Q66GS9, 0.228 °C.
Consider PPP6R3 (UniProt Q5H9R7), for which the melting temperature shift is -0.892 °C.
Take METTL10 (UniProt Q5JPI9): the melting temperature shift was 0.694 °C.
On to TMEM214 (UniProt Q6NUQ4), for which the melting temperature shift came to 0.959 °C.
Consider UniProt Q6P582, for which the melting temperature shift was determined as 2.25 °C.

Still in this experiment, the particulars now being: A375; MBE1 concentration: 1 uM.
MRPL14 (UniProt Q6P1L8): the melting temperature shift was determined as 1.03 °C.
Same read-out and setting: with UniProt Q5HYJ3 the figure was -0.116 °C; with RBM26 (UniProt Q5T8P6), -0.218 °C.
Regarding UniProt Q5VWG9, the melting temperature shift was -0.0329 °C.
On to UniProt Q58FF8, for which the melting temperature shift worked out at 0.299 °C.
In the case of UniProt Q58EX7, the melting temperature shift is -1.7 °C.
With KIAA0930 (UniProt Q6ICG6), the melting temperature shift is -0.671 °C.
On to EARS2 (UniProt Q5JPH6), for which the melting temperature shift is -0.218 °C.
UniProt Q68DK7: the melting temperature shift stood at 0.81 °C.
The same measure, in the same setting: with FAM21A (UniProt Q641Q2) the figure was -0.171 °C; with UniProt Q6GMV3, 0.0435 °C; with GLT8D1 (UniProt Q68CQ7), -0.14 °C.
For EMC4 (UniProt Q5J8M3), the melting temperature shift turned out to be 0.476 °C.
Take UniProt Q68CZ1: the melting temperature shift is -0.556 °C.
For SNAP47 (UniProt Q5SQN1), the melting temperature shift is 0.0513 °C.
Same read-out and setting: with SMYD5 (UniProt Q6GMV2) the figure was 0.367 °C.
Turning to RC3H1 (UniProt Q5TC82), the melting temperature shift is -1.84 °C.
Consider YIF1B (UniProt Q5BJH7), for which the melting temperature shift is -1.5 °C.
As to DOCK11 (UniProt Q5JSL3), the melting temperature shift came to 0.385 °C.
TBC1D9B (UniProt Q66K14): the melting temperature shift turned out to be 0.0183 °C.
On the same count and under the same terms, for MIA3 (UniProt Q5JRA6) the value was 0.263 °C; for PMF1 (UniProt Q6P1K2), -0.812 °C; for FAM160B1 (UniProt Q5W0V3), -0.00671 °C.
As to PDSS1 (UniProt Q5T2R2), the melting temperature shift stood at 1 °C.
As to SH3D19 (UniProt Q5HYK7), the melting temperature shift is -0.791 °C.
With PITRM1 (UniProt Q5JRX3), the melting temperature shift is -0.0244 °C.
Take FAM117B (UniProt Q6P1L5): the melting temperature shift was -0.765 °C.
As to INTS3 (UniProt Q68E01), the melting temperature shift was -0.615 °C.
As for PIGG (UniProt Q5H8A4), the melting temperature shift worked out at 1.1 °C.
Still for that read-out and setting: for UniProt Q5R372 the value was 0.122 °C.
On to UniProt Q68DA7, for which the melting temperature shift was -0.327 °C.
The same measure, in the same setting: with RNF123 (UniProt Q5XPI4) the figure was -0.214 °C; with DUS1L (UniProt Q6P1R4), 0.288 °C.
Consider UniProt Q66GS9, for which the melting temperature shift was 1.93 °C.
On the same count and under the same terms, for PPP6R3 (UniProt Q5H9R7) the value was 0.74 °C.
The same measure, in the same setting: for METTL10 (UniProt Q5JPI9) the value was 0.731 °C; for TMEM214 (UniProt Q6NUQ4), 0.208 °C.
Turning to UniProt Q6P582, the melting temperature shift was -2.99 °C.

The values above are taken from the supplement of paper PMC12595434, “Development of retinoid nuclear receptor pathway antagonists through targeting aldehyde dehydrogenase 1A3” (iScience, 2025).
